Data as given in the supplement of paper PMC12823440, “Inhibitors supercharge kinase turnover through native proteolytic circuits” (Nature, 2025).
Where a name gives a salt, the structure may show the parent alone. The list shows a part of the results. Hit calls seldom repeat between salt and free forms of one compound.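 Kinases were expressed as nanoluciferase fusions in K562 cells and luminescence was read every 4 h between 2 and 18 h as percent of control, DMSO set to 100% and a positive control to 0%. A time point counts as decreased when the signal drops significantly (2 sigma). The hit call is the authors' own, does not follow from the count of time points alone, and its rule is not shown.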

Chains of the proteins cited; added tags and fusions are not shown.
UniProt Q05397, whole entry, looked up: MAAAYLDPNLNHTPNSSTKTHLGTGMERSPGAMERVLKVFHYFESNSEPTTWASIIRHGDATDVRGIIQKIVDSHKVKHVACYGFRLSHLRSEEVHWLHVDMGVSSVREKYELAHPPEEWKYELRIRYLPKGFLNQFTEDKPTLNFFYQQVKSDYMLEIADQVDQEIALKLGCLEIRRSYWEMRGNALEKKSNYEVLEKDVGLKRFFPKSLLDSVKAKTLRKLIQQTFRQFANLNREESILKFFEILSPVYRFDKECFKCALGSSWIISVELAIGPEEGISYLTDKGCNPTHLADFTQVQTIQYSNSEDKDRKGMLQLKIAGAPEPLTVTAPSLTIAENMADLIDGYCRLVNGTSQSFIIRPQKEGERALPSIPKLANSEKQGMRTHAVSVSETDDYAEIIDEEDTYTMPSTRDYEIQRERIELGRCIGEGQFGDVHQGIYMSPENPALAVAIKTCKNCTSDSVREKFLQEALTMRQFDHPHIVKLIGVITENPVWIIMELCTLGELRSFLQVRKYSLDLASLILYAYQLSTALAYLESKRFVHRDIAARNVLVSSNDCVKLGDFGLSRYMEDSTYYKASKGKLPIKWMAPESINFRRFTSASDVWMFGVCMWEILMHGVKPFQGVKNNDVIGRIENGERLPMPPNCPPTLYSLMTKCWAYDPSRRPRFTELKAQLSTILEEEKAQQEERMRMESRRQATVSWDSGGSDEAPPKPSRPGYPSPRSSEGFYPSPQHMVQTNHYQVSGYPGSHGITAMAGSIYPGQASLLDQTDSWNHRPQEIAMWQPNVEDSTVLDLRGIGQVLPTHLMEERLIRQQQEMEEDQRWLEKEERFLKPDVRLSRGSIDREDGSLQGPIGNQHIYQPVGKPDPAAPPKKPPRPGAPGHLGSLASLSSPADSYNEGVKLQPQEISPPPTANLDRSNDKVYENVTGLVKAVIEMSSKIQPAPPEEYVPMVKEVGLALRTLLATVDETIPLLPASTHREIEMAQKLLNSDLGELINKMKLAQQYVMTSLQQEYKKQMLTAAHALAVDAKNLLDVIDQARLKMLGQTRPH

These compounds were tested against PTK2 (UniProt Q05397) (assay: kinase-Nluc reporter destabilization hit call (1 = scored as downregulated) (binary); higher = compound decreases kinase abundance). Settings: 2.5 µM; K562; 2-18 h.

kinase-Nluc reporter destabilization hit call, inactive:
CN1CCCN(C(=O)c2cccc(-c3ccc(/C=C4/C(=O)Nc5ccc(Cl)cc54)o3)c2)CC1 [CX-6258 (hydrochloride)] 0
Clc1ccc(C2(c3ccc(-c4cn[nH]c4)cc3)CCNCC2)cc1 [AT7867 (dihydrochloride)] 0
CC(C)Oc1ccc(-c2nn([C@@H](C)c3oc4ccc(F)cc4c(=O)c3-c3cccc(F)c3)c3ncnc(N)c23)cc1F [Umbralisib] 0
C=CC(=O)Nc1cc(Nc2nccc(-c3cn(C)c4ccccc34)n2)c(OC)cc1N(C)CCN(C)C [Osimertinib] 0
COc1cc2c(Oc3ccc4[nH]c(C)cc4c3F)ncnc2cc1OCCCN1CCCC1 [Cediranib (maleate)] 0
CC(C)Oc1ccc(-c2nn([C@@H](C)c3oc4ccc(F)cc4c(=O)c3-c3cccc(F)c3)c3ncnc(N)c23)cc1F [Umbralisib (hydrochloride)] 0
COc1ccc(S(=O)(=O)N(CCO)c2ccccc2CN(C)C/C=C/c2ccc(Cl)cc2)cc1 [KN-93 (hydrochloride)] 0
C=CC(=O)N1CCN(c2ncnc3c(F)c(-c4c(O)cccc4F)c(Cl)cc23)CC1 0
COc1ccc(S(=O)(=O)Nc2ccccc2CN(C)C/C=C/c2ccc(Cl)cc2)cc1 [KN-92 (hydrochloride)] 0
CCN(CC)Cc1ccc(OC)c(-c2cc3c(-c4ccc(C(=O)O)c(C(C)C)c4)ccnc3[nH]2)c1 0
CN(C)C/C=C/C(=O)Nc1cc2c(Nc3ccc(F)c(Cl)c3)ncnc2cc1O[C@H]1CCOC1 [Afatinib (dimaleate)] 0
Oc1cccc(-c2nc(N3CCOCC3)c3oc4ncccc4c3n2)c1 [PI-103 (Hydrochloride)] 0
c1cc(-c2cnn3cc(-c4ccc(OCCN5CCCCC5)cc4)cnc23)ccn1 [Dorsomorphin] 0
COc1ccc(S(=O)(=O)N(CCO)c2ccccc2CN(C)C/C=C/c2ccc(Cl)cc2)cc1 [KN-93 (phosphate)] 0
Nc1ncnc2c1c(-c1ccc(Oc3ccccc3)cc1)nn2[C@@H]1CCCNC1 [IBT6A (hydrochloride)] 0

Same assay, conditions: 10 µM; K562; 2-18 h

kinase-Nluc reporter destabilization hit call, inactive:
COc1cc2nccc(Oc3ccc(NC(=O)C4(C(=O)Nc5ccc(F)cc5)CC4)cc3)c2cc1OC [Cabozantinib (S-malate)] 0
Cn1cc(-c2cnc3ccc4ccc(CS(=O)(=O)NCc5ccccn5)cc4c(=O)c3c2)cn1 [MK-8033 (hydrochloride)] 0
CNC(=O)c1ccc(Nc2ncc(C(F)(F)F)c(NCc3nccnc3N(C)S(C)(=O)=O)n2)cc1 [Defactinib] 0
N#CCNC(=O)c1ccc(-c2ccnc(Nc3ccc(N4CCOCC4)cc3)n2)cc1 [Momelotinib] 0
CC(=O)c1c(C)c2cnc(Nc3ccc(N4CCNCC4)cn3)nc2n(C2CCCC2)c1=O [Palbociclib (isethionate)] 0
Nc1cncc(-c2cn3ccnc3c(Nc3ccc(N4CCN(C5COC5)CC4)cc3)n2)n1 [Lanraplenib (succinate)] 0
C#Cc1cccc(Nc2ncnc3cc4c(cc23)OCCOCCOCCO4)c1 [Icotinib] 0
O=C(O)c1ccc2c(c1)nc(Nc1cccc(Cl)c1)c1ccncc12 [Silmitasertib (sodium salt)] 0
CC(C)Nc1cc(-c2c[nH]c(C(=O)N[C@H](CO)c3cccc(Cl)c3)c2)c(Cl)cn1 [Ulixertinib (hydrochloride)] 0
C=CC(=O)N1CCN(c2ncnc3c(F)c(-c4c(O)cccc4F)c(Cl)cc23)CC1 0
CN(C)C(=O)c1cc2cnc(Nc3ccc(N4CCNCC4)cn3)nc2n1C1CCCC1 [Ribociclib] 0
COc1cc2c(-c3cnn4cc(N5CCC(N6CCN(C)CC6)CC5)cnc34)ccnc2cc1F [ALK2-IN-4 (succinate)] 0
CCN(CC)Cc1ccc(OC)c(-c2cc3c(-c4ccc(C(=O)O)c(C(C)C)c4)ccnc3[nH]2)c1 0
O=C(c1nn(-c2ccc(CN3CCOCC3)cc2)c2c1CS(=O)(=O)c1c(F)cccc1-2)N1CCOCC1 0
CC(C)(C)n1nc(-c2cccc3ccccc23)c2c(N)ncnc21 [1-Naphthyl PP1 (hydrochloride)] 0
CCN(CC)CC(=O)Nc1c(C)cccc1C [Lidocaine (hydrochloride)] 0
Cn1ncc(Cl)c1-c1cc(C(=O)N[C@H](CN)Cc2cccc(F)c2)sc1Cl [Afuresertib (hydrochloride)] 0
COc1cc2c(cc1OC)-c1c(C)c3ccc(OC)c(OC)c3c[n+]1CC2 [Dehydrocorydaline] 0
C[C@H](CCC(=O)NCCS(=O)(=O)O)[C@H]1CC[C@H]2[C@@H]3[C@@H](O)C[C@@H]4C[C@H](O)CC[C@]4(C)[C@H]3CC[C@]12C [Tauroursodeoxycholate (dihydrate)] 0
OCCn1cc(-c2cnc3nnn(Cc4ccc5ncccc5c4)c3n2)cn1 0
C[S+]([O-])c1ccc(-c2nc(-c3ccc(F)cc3)c(-c3ccncc3)[nH]2)cc1 (configuration not stated) 0
CC(C)(C)n1nc(-c2cccc3ccccc23)c2c(N)ncnc21 [1-Naphthyl PP1] 0
